The nature of this assay: qHTS Assay for Lipid Storage Modulators in Drosophila S3 Cells.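 For cell number change: cells counted by Cell Tracker Red CMTPX staining in the red channel.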 The conditions noted are these: BODIPY lipid droplet fluorescence, 18-24 h; for cell number change: measured here: cell count max response, cells fed with added oleic acid. A digest of the protocol: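 Drosophila S3 cells got compounds at several concentrations plus oleic acid (400 uM solution). Laser-scanning cytometry with 488 nm excitation read lipid droplets at 500-530 nm and cells at 575-640 nm. Percent activity was relative to 20 uM Triacsin C.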
(In general: In qHTS, concentration-response curves come from the screen itself.)

The mark [1] stands for this setting: measured here: lipid fluorescence (Fed channel) AC50, cells fed with added oleic acid.
Where [2] appears, read: measured here: cell number channel AC50, cells fed with added oleic acid.

Here are results for 36 molecules from PubChem BioAssay AID2685 (National Center for Advancing Translational Sciences (NCATS), 2010).

The other results are listed elsewhere or left out. Shown are side measurements of this screen, not its main read-out; they come without a call. Most of these compounds were active or inconclusive in the main read-out, so they are no random draw. Words in brackets tell the shape of the fitted curve; partial curves, single points and poor fits give uncertain potencies.

In general, AC50 refers to the concentration at which the activity in the assay is half-maximal. A low value points to activity at low concentration.

Consider `CSCC[C@H](NC(=O)N1CCn2c1nc1ccccc12)C(=O)NCc1ccc(C)cc1`, for which, under setting [1], the AC50 was 0.116 µM [falling, single point].
As to `COC(=O)c1ccccc1NC(=S)NC(=O)c1ccccc1F`, the cell number change is 11.9%. Under setting [1], the AC50 was 29.1 µM [rising, single point].
Take `Cn1c(=O)c2c(ncn2Cc2ccc(Cl)c(Cl)c2)n(C)c1=O`: the cell number change was -23.1%. Also, the AC50 under setting [1] was 18.4 µM [falling, single point].
Consider `Cc1ccc2cc(NC(=O)CC(CC(=O)O)c3ccccc3)ccc2n1` (configuration not stated), for which the cell number change is -23.7%. Moreover, the AC50 under setting [1] is 0.0651 µM [falling, full curve, poor fit].
Turning to `CCOC(=O)CN(Cc1sccc1C)C(=O)Nc1cccc(OC)c1`, the cell number change is -3.77%. In addition, under setting [1], the AC50 was 29.1 µM [falling, single point].
On to `FC(F)C(F)(F)C(F)(F)C(F)(F)c1cc(-c2ccccc2)n[nH]1`, for which the cell number change was -68.9%. Further, the AC50 under setting [2] was 20.6 µM [falling, partial curve, poor fit]. The AC50 under setting [1] was 16.4 µM [falling, single point].
As to `COC(=O)c1sccc1NC(=O)COc1ccc(Cl)cc1`, the cell number change was -7.72%. For the same molecule, the AC50 under setting [2] was 1.46 µM [falling, full curve, poor fit].
For `Cc1ccccc1Oc1cc(NC(=O)CCCn2nc(C)c([N+](=O)[O-])c2C)cc([N+](=O)[O-])c1`, the cell number change is -66.6%. For the same molecule, the AC50 under setting [2] is 14.6 µM [falling, partial curve]. For the same molecule, the AC50 under setting [1] was 20.6 µM [falling, single point].
On to `COc1ccc(OC)c(C(=O)c2coc3ccc(OC(C)=O)cc23)c1`, for which the cell number change was -35.4%. Moreover, the AC50 under setting [2] was 9.2 µM [falling, partial curve]. Besides, the AC50 under setting [1] is 6.51 µM [falling, partial curve].
For the molecule `CCN(CC)CCn1c(=S)[nH]c2cc(C(=O)N3CC(C)CC(C)C3)ccc2c1=O` (configuration not stated), the cell number change worked out at 13.7%. Besides, the AC50 under setting [1] was 29.1 µM [falling, single point].
Turning to `Cc1ccc(C(=O)OCC(=O)Nc2nc(-c3ccccc3)cs2)cc1NC(=O)c1ccco1`, the cell number change turned out to be 151%. Further, under setting [1], the AC50 is 29.1 µM [rising, single point].
In the case of `COc1ccc2c(c1)CCc1c(C(=O)N3CCc4ccccc4C3)noc1-2`, under setting [1], the AC50 is 3.26 µM [falling, single point].
`Cc1ccc(C2CC(c3ccc(Br)cc3)=NN2C(=O)CSC2=NN3CCCC(=O)N=C3S2)cc1` (configuration not stated): the cell number change is 14.9%. Also, the AC50 under setting [1] is 0.00461 µM [rising, full curve, poor fit].
On to `O=C(CSc1ccc2nnc(-c3cccnc3)n2n1)c1ccccc1`, for which the cell number change was -62.4%.
As to `O=c1c(Cl)c(N2CCOCC2)cnn1-c1nc2ccccc2[nH]1`, the cell number change stood at 14.3%.
Take `CCN1CCN(CCC(=O)Nc2ccc(Br)c(C)c2)CC1`: the cell number change is -8.92%. For the same molecule, the AC50 under setting [1] was 6.51 µM [rising, single point].
`O/N=C(/c1ccccc1)c1cc2cc(Br)cc(Br)c2o1`: the cell number change was -42.2%. Moreover, under setting [2], the AC50 is 14.6 µM [falling, partial curve]. In addition, under setting [1], the AC50 is 25.9 µM [falling, partial curve].
For the molecule `Cc1ccc(S(=O)(=O)NCC(=O)NCC2CCCCC2)cc1C`, the cell number change is 25%. Besides, under setting [1], the AC50 is 20.6 µM [rising, partial curve].
In the case of `CCc1cccc(NC(=O)CN(C)S(=O)(=O)c2cccc3cccnc23)c1`, the cell number change turned out to be 30.3%.
For the molecule `CCN(Cc1ccccc1)S(=O)(=O)c1ccc(C(=O)N2CCN(c3nc4ccccc4s3)CC2)cc1`, the cell number change amounted to 26.1%. The AC50 under setting [1] is 8.2 µM [rising, partial curve, poor fit].
`COc1cccc(NC(=O)CCc2nnc3ccc(N4CCN(c5cccc(OC)c5)CC4)nn23)c1`: the AC50 under setting [1] is 3.66 µM [falling, full curve].
As to `CC1CC(C)CN(C(=O)CSCC(=O)Nc2nc(-c3cccs3)cs2)C1` (configuration not stated), the cell number change was -35.5%. In addition, under setting [2], the concentration at half-maximal activity (AC50) is 6.51 µM [falling, full curve, poor fit]. Also, the concentration at half-maximal activity (AC50) under setting [1] was 9.2 µM [falling, partial curve].
Regarding `CC(=O)Nc1ccc(S(=O)(=O)NC2CC(=O)N(c3ccc4c(c3)OCCO4)C2)cc1` (configuration not stated), the cell number change stood at 76.4%. The AC50 under setting [2] is 16.4 µM [rising, single point].
`Nc1ccc(C(=O)O)c(O)c1`: the AC50 under setting [2] was 13 µM [rising, partial curve, poor fit] and the concentration at half-maximal activity (AC50) under setting [1] was 1.3 µM [falling, full curve, poor fit].
Take `CCC(C)C1=CC(=Nc2c(C)n(C)n(-c3ccccc3)c2=O)C=C(C(C)CC)C1=O` (configuration not stated): the cell number change is 13.9%. For the same molecule, the AC50 under setting [2] is 0.116 µM [rising, full curve, poor fit]. Moreover, the AC50 under setting [1] was 6.51 µM [rising, single point].
On to `NS(=O)(=O)c1ccc(CCNCc2cccnc2)cc1`, for which the cell number change turned out to be 32.4%.
The same measure, in the same setting: for `CN(CC(=O)Nc1cccc(F)c1)C(=O)c1ccccc1-n1cnnn1` the value was -23.7%.
Consider `CNC(=O)c1cccc(NC(=O)c2ccccc2OCc2ccccc2)c1`, for which the cell number change was determined as 20.2%. Moreover, the AC50 under setting [1] is 3.26 µM [falling, full curve].
In the case of `CC(C)NC(=O)COC(=O)c1cncc(Br)c1`, the cell number change was -23.7%. Further, under setting [2], the AC50 was 0.00651 µM [falling, full curve, poor fit]. Besides, the AC50 under setting [1] was 0.13 µM [falling, full curve].
Regarding `Cc1nn(-c2ccccc2)c(C)c1/C=C/C(=O)OCC(=O)N(C)C1CCS(=O)(=O)C1` (configuration not stated), the cell number change was 12.3%. In addition, the AC50 under setting [1] was 0.731 µM [falling, partial curve, poor fit].
As for `CCOC(=O)c1c(NC(=O)C(=O)N/N=C/c2ccc(O)c(OC)c2)sc2c1CCCCC2`, the cell number change was -19%. The AC50 under setting [2] is 0.116 µM [falling, full curve, poor fit]. Besides, the AC50 under setting [1] was 1.3 µM [rising, full curve].
Turning to `COc1ccc(/C=N/Nc2cc(C)nc3ccc(Br)cc23)cc1`, the cell number change was -69.8%. The AC50 under setting [2] is 18.4 µM [falling, partial curve]. For the same molecule, the half-maximal activity concentration (AC50) under setting [1] was 25.9 µM [falling, single point].
Turning to `O=C(c1cccs1)N(Cc1cc2ccccc2[nH]c1=O)c1ccccc1`, the cell number change was 12.7%.
For `C/C(=N\Nc1ccc(Cl)c(C(=O)O)c1)c1cccc2ccccc12`, the cell number change turned out to be 4.96%.
Take `COc1ccc(-n2c(C)c(C(C)=O)c(C(C)=O)c2C)cc1`: the cell number change was -13.2%. For the same molecule, the AC50 under setting [2] was 0.116 µM [falling, full curve].
As for `CN(/C=C1/C(=O)CNC1=O)CCO`, the cell number change is -25.4%. For the same molecule, under setting [2], the concentration at half-maximal activity (AC50) is 2.31 µM [falling, full curve, poor fit]. Also, the half-maximal activity concentration (AC50) under setting [1] is 2.59 µM [falling, full curve, poor fit].
